Out of some 140,000 compounds screened, about 4,300 (3.1%) were called active. Inconclusive results, whose numbers are uncertain, are shown with a selection of clear calls.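 The calls were made as follows: active = readout at or below -70, meaning at least 70% loss of cells showing the perinucleolar compartment, a nuclear body marking cancer cells; inconclusive = readout between -30 and a set limit; inactive = the rest.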
Test: High Content Assay for Compounds that inhibit the Assembly of the Perinucleolar Compartment;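 also: plate controls were DMSO wells for no effect and camptothecin positive control wells for full effect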
Conditions: PC3M PTB-GFP, PNC prevalence imaging, 16 h; at 10 µM; active compounds read low
How it was run: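 Read-out is percentage of cells bearing a perinucleolar compartment, from automated 20x imaging of fixed, Hoechst-stained PC3M PTB-GFP cells. Cells were seeded 4 h, then exposed 16 h to compound (23 nl of library stock) in duplicate plates.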

Structure (SMILES) | activity change (PNC), negative = inhibition
CCOCCCNC(=O)C(NC(=O)c1ccc(NC(C)=O)cc1)c1ccc(OC)cc1 (stereo not drawn) | inconclusive: -43%
CC(=O)Nc1ccc(S(=O)(=O)N2CCCN(S(=O)(=O)c3ccc(NC(C)=O)cc3)CC2)cc1 | inconclusive: -34.1%
Cc1[nH]c(=O)[nH]c(=O)c1S(=O)(=O)Nc1ccc(Oc2ccccc2)cc1 | inconclusive: -48%
CN(C)c1ccc(C(=O)OCc2ccccc2)cc1 | inactive: 25.4%
CCCc1cc(=O)[nH]c(SCC(=O)c2cc(C)n(CCOC)c2C)n1 | inconclusive: -79.1%
Cn1c(=O)c2c(nc(CN3CCC(C(N)=O)CC3)n2Cc2ccccc2Cl)n(C)c1=O | inconclusive: -40.4%
COc1ccc(OCCSc2nnc(-c3ccc(OC)cc3)n2N)cc1 | inconclusive: -50.1%
Cc1ccc(S(=O)(=O)c2nc(Nc3nccs3)sc2Cl)cc1 | inconclusive: -31.1%
Cc1cc(C(=O)COc2cccc(-n3cnnn3)c2)c(C)n1-c1ccccc1 | inconclusive: -55.9%
COc1cc2c(cc1OC)C(C1C(=O)CCCC1=O)N(C(=O)CCl)CC2 (stereo not drawn) | inconclusive: -53.9%
CC(=O)NC1(c2ccccc2)CCN(c2nc(C)cc(C)n2)CC1 | inactive: -23.8%
Cc1ccc(NC(=S)c2nc3ccccc3[nH]2)c(C)c1 | inactive: 15.1%
CCOc1ccc(NC(=O)Nc2ccc3c(c2)N(C)C(=O)CS3)cc1 | inconclusive: -64.3%
O=C1CCCN1CCCNc1ncnc2c1[nH]c1ccc(Cl)cc12 | inconclusive: -78.9%
CCCCN(C)C(=O)c1cc2cc3ccc(OC)cc3nc2s1 | inconclusive: -40.2%
Cc1ccccc1C(=O)NCCSc1ccccc1 | inconclusive: -75.7%
O=C(/C=C/c1ccccc1)c1ccc2c(c1)OCCCCO2 | inconclusive: -38.8%
Cc1cccc(-c2nc(CS(=O)CC(=O)N3CCc4ccccc4C3)c(C)o2)c1 (stereo not drawn) | active: -106%
COc1ccc(CCCNC(=O)CC#N)cc1OC | inactive: -26.4%
COc1ccc(-c2nc(C)sc2CC(=O)O)cc1 | active: -100%
O=[N+]([O-])c1ccc(Cl)c(C2Nc3cccc4cccc(c34)N2)c1 | inactive: 132%
O=S(=O)(c1ccc2ccccc2c1)N1CCCCC1 | inconclusive: -35.9%

Structure (SMILES) | activity change (PNC), negative = inhibition
CCNc1sc(C(=O)c2cccs2)c(N)c1-c1nc2ccccc2s1 | inactive: 40.5%
Cc1cc2cc(CNC(=O)NC3CCCCC3)ccc2n1C | inactive: -10.7%
COc1ccc(-c2ccnc(SCC(=O)N3CCOCC3)n2)cc1 | active: -100%
COc1cccc(/C=N/NC(=O)c2ccccc2)c1OS(=O)(=O)c1ccccc1 | inconclusive: -75.5%
COc1ccccc1-n1nnnc1SCC(=O)Nc1cc(C)on1 | inconclusive: -33.4%
CCCc1cc(=O)[nH]c(SCc2nc3ccccc3s2)n1 | inconclusive: -31.6%
O=C(C1CCCO1)N1CCN(Cc2nc3ccccc3c(=O)[nH]2)CC1 (stereo not drawn) | active: -135%
Cn1nc(-c2ccccc2)c(C(O)c2ccc(Cl)cc2)c1Cl (stereo not drawn) | inconclusive: -50.8%
CC(C)C(NC(=O)C12CC3CC(CC(C3)C1)C2)C(=O)N/N=C/C1=C(N2CCOCC2)C(=C\c2ccc([N+](=O)[O-])cc2)/CC1 (stereo not drawn) | inconclusive: -41.5%
CCC(=O)N(C)C(c1ccccc1Cl)c1nnnn1-c1c(C)cccc1C (stereo not drawn) | inconclusive: -48.1%
CC(NC(=O)COC(=O)c1ccc([N+](=O)[O-])s1)c1ccccc1 (stereo not drawn) | inconclusive: -39.1%
CN1/C(=C\C(=S)NC(=O)c2ccccc2Cl)C(C)(C)c2ccccc21 | inactive: 5.24%
O=C(COC(=O)COc1ccccc1)Nc1ccc(OC(F)(F)F)cc1 | inconclusive: -38.2%
c1ccc(OCCCc2nc(-c3cccnc3)no2)cc1 | inconclusive: -57.6%
O=C(CCc1nc2ccccc2c(=O)[nH]1)OCc1ccccc1F | inconclusive: -36.4%
CN(C1CCCCC1)S(=O)(=O)c1ccc2c(c1)c(=O)c(C(=O)NCCN1CCCC1)cn2C | inconclusive: -45.2%
COC(=O)c1sccc1-n1cccc1C(=O)NCc1ccccc1 | inconclusive: -31.4%
COc1cc(/C=C(\C#N)C(=O)Nc2cccc3ncccc23)cc(OC)c1OC | inactive: -14.7%
Cc1cc(C)n(C(=O)c2ccncc2)n1 | inconclusive: -73.3%
COc1ccc(/C=C/C(=O)Nc2ccc(OC)nc2)cc1 | inactive: -17.9%
CCCNC(=O)c1ccc2nc(-c3ccccc3)c(-c3ccccc3)nc2c1 | inconclusive: -54.7%
COc1ccc(N2CCC(CNC(=S)Nc3cccc(C)c3)C2)cc1 (stereo not drawn) | inactive: -3.26%

Structure (SMILES) | activity change (PNC), negative = inhibition
Cc1cc(OCC(=O)Nc2cc(-c3nn4c(C)nnc4s3)ccc2C)ccc1Cl | inactive: -27.1%
C=CCOc1c2ccc(C(=O)NCc3ccc(OC)cc3)cc2nn1C | active: -109%
Cc1ccc(-c2nnc(N3CCN(c4ccccn4)CC3)c3ccccc23)cc1 | inconclusive: -43.3%
CCOc1cc(/C=N/NC(=O)Cc2ccc(C(F)(F)F)cc2[N+](=O)[O-])ccc1O | inconclusive: -34.4%
O=C(c1cccs1)n1nc(NCc2ccccc2)nc1NCc1ccccc1 | inactive: -4.14%
Cc1ccc2c(c1)c1c3n2CCCN(Cc2ccccc2)C3CCC1 (stereo not drawn) | inconclusive: -39.1%
COc1cc2c(cc1OC)C(COc1ccc3c(C)cc(=O)oc3c1)N(C(=O)c1ccco1)CC2 (stereo not drawn) | inconclusive: -41.4%
CC(Sc1nc2ccccc2[nH]1)C(=O)Nc1ccc2c(c1)OCCO2 (stereo not drawn) | inconclusive: -38.7%
O=c1[nH]ncc(N2CCN(C(c3ccccc3)c3ccccc3)CC2)c1Cl | inactive: -23.6%
CN1C(=O)COc2ccc(C(=O)c3oc4ccccc4c3-c3cnc4c(c3)COc3ccccc3-4)cc21 | inconclusive: -56.1%
CC(C)OC(=O)c1cc2ccccc2oc1=O | inactive: -16.3%
C=CCOC(=O)C1=C(C)NC(C)=C(C(=O)OCC=C)C1c1cccs1 | inconclusive: -53.9%
Cn1cc(/C=N/NC(=O)c2cccc([N+](=O)[O-])c2)c2ccccc21 | inactive: 26.6%
O=C(CN(CCN1CCOCC1)C(=O)Cn1nnc(-c2ccc(F)cc2)n1)NC1CCCCC1 | inconclusive: -42.8%
O=S(=O)(Nc1ccc(-c2nc3cccnc3s2)cc1)c1cccs1 | inconclusive: -56.1%
O=C(N/N=C/c1cccs1)c1n[nH]c2c1CCC2 | inconclusive: -48.4%
COc1ccc(S(=O)(=O)N2CCCCCC2)cc1NC(=O)c1c2c(nc3ccccc13)CCN(Cc1ccccc1)C2 | inconclusive: -42.9%
COc1ccc2[nH]c3c(=O)n(CCCCC(=O)N4CCC(C(N)=O)CC4)c(=S)[nH]c3c2c1 | inconclusive: -45.4%
O=C(NCc1ccc(Cl)cc1)c1cnn2ccccc12 | inactive: 20.5%
Cc1ccc(C(=O)Nc2cccc(C(=O)O)c2)cc1S(=O)(=O)N1CCOCC1 | inconclusive: -47.8%
CO/N=C/CC(=O)Nc1ccc(F)cc1F | inconclusive: -32.7%
O=C(Nc1ccc(S(=O)(=O)Nc2nccs2)cc1)c1cc(-c2ccccc2)nc2ccccc12 | inconclusive: -36.3%

Structure (SMILES) | activity change (PNC), negative = inhibition
O=C(CNc1ccc2ccccc2c1)N/N=C/c1ccc(OC(=O)/C=C/c2ccco2)cc1 | inconclusive: -62.2%
CCCC1C2CN(C(C)=O)CC=C2C(C#N)=C(N)C1(C#N)C#N (stereo not drawn) | inactive: -4.64%
Cc1ccc(S(=O)(=O)c2nc(S(C)(=O)=O)sc2N(C)C)cc1 | inconclusive: -38.4%
CC1(C)Cc2c(c(-c3ccccc3)[nH]c(=O)c2C#N)CO1 | inconclusive: -54.2%
O=S(=O)(Nc1ccncc1Cl)c1ccccc1 | inconclusive: -41.9%
N=c1c2c(n(Cc3ccc(Cl)cc3)c3c1CCC3)CCC2 | inconclusive: -59.6%
CCCn1c(SCC(=O)Nc2nnc(CC)s2)nc2c1c(=O)n(C)c(=O)n2C | inconclusive: -67.4%
Cc1ccc(N2C(=O)CC(N3CCN(C)CC3)C2=O)cc1 (stereo not drawn) | active: -100%
NC(=O)c1c(NC(=O)CSc2nnc(-c3ccccc3)n2CC2CCCO2)sc2c1CCC2 (stereo not drawn) | inactive: -2.69%
COc1cc(NC(=S)NCc2cccs2)cc(OC)c1 | inactive: 33%
Cn1c(SCC(=O)Nc2cc(=O)n(C)c(=O)n2C)nnc1C12CC3CC(CC(C3)C1)C2 | inconclusive: -54.5%
O=S(=O)(c1ccccc1)n1nc(-c2ccccc2)nc1NCc1ccco1 | inconclusive: -31.4%
COc1ccc(CCC(=O)OC(C)C(=O)c2ccc(C)cc2)cc1 (stereo not drawn) | inconclusive: -38.2%
CN(CC(=O)Nc1ccccc1C(F)(F)F)C(=O)COc1ncnc2sccc12 | inconclusive: -39.8%
Oc1cc2ccccc2cc1-c1n[nH]c(=S)o1 | inconclusive: -31.1%
CC(C)N(Cc1nc(-c2ccccc2)no1)C(=O)c1ccc(Cl)cc1 | inactive: 8.17%
COc1cccc(-n2ccnc2SCC(=O)NCc2ccccc2)c1 | inactive: 25.1%
CCCC1(C(=O)O)NC(c2ccccc2O)C2C(=O)N(Cc3ccccc3)C(=O)C21 (stereo not drawn) | active: -110%
COCCN(C(=O)C(F)(F)F)C(C(=O)NC1CCCCC1)c1ccco1 (stereo not drawn) | inconclusive: -58.1%
CC1CCN(C(=O)C2CCN(C(=O)c3cc4sccc4n3Cc3ccc(F)cc3)CC2)CC1 | inactive: 7.4%
CS(=O)(=O)c1ccc(Cl)c(NC(=O)C2CC(=O)N(Cc3ccccc3)C2)c1 (stereo not drawn) | inconclusive: -38.3%
COc1ccc(C(=O)c2c(C)oc3ccc(O)c(CN4CCOCC4)c23)cc1 | inconclusive: -59.3%

Among those listed so far, these have a COOH group:
Structure (SMILES) | activity change (PNC), negative = inhibition
COc1ccc(-c2nc(C)sc2CC(=O)O)cc1 | active: -100%
Cc1ccc(C(=O)Nc2cccc(C(=O)O)c2)cc1S(=O)(=O)N1CCOCC1 | inconclusive: -47.8%
CCCC1(C(=O)O)NC(c2ccccc2O)C2C(=O)N(Cc3ccccc3)C(=O)C21 (stereo not drawn) | active: -110%
